Measured values published in article PMC4197704.
No constants are given. Whether binding was seen depends on the method and setting. In cells and extracts the contact can be indirect. Some entries that bind do so weakly or less than the wild type.

Protein sequences, listed by entry. Tags and fused reporters are not part of them.
UniProt P63168: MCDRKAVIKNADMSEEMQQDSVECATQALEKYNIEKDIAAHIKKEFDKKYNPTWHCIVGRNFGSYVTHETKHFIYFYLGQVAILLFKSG
UniProt Q96EX3: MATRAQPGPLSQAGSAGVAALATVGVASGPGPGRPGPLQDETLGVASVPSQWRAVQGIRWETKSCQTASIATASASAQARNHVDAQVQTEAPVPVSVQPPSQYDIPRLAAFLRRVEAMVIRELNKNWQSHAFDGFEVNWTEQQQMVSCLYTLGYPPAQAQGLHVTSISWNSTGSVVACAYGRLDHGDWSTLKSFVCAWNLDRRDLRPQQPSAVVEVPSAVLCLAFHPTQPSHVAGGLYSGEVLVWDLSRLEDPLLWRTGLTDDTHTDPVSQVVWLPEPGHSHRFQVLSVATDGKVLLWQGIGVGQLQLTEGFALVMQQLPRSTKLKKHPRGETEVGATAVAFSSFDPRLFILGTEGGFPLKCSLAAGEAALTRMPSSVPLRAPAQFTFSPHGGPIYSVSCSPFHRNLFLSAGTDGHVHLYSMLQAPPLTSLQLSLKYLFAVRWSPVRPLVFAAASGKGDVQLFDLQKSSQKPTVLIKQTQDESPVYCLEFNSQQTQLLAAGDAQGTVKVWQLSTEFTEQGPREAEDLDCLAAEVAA

What was measured:
myc-DYNLL1 (mouse) = myc-DYNLL1 (mouse) (UniProt P63168); experiment: co-IP; HEK-293T cells co-transfected with WDR34-GFP and myc-DYNLL1 or myc-DYNLL2; lysed in RIPA buffer with protease inhibitors; 0.4 mg pre-cleared lysate per IP, 1 ug anti-GFP or anti-Myc antibody on Protein G Sepharose; blot for the other tag
WDR34-GFP (human) = WDR34-GFP (human) (UniProt Q96EX3); experiment: as above

Substance	binding (myc-DYNLL1 (mouse))	binding (WDR34-GFP (human))
WDR34-GFP (from UniProt Q96EX3 1-536)	binds	–
myc-DYNLL1 (from UniProt P63168 1-89)	–	binds
